PubChem BioAssay AID1347423 (Functional Genomics Laboratory (NCATS/FGL), 2020)
Out of some 52,000 sequences screened, about 210 (0.4%) were called active.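 How the source made its calls: active means gene whose silencing raises cell survival under the drug, median off-target-corrected z-score across its silencing RNAs 2 or more; inactive means the rest.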 This is one part of the list.

Test: Resistance to Poly (ADP-Ribose) Polymerase inhibitor: Gene Identification via Genome-wide siRNA Screen
Settings: mouse BRCA2 R2336H ES cells, olaparib, CellTiter-Glo viability; active compounds read high
Outline: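 Genome-wide siRNA screen (3 siRNAs/gene, 20 nM) in mouse ES cells carrying hypomorphic BRCA2 R2336H; olaparib 500 nM added 48 h post-transfection, CellTiter-Glo viability 72 h later. Normalized to plate-median negative control; MAD z-scores, gene median, seed-adjusted.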

Sequence	z-score
GGGCCGAUCAUGGUUAACATT against Cpt1a	inactive: -0.373
GGGUUAUCGAUAGAAAAUATT against Rag2	inactive: -0.745
GGAGAGUAGAUUCUCCAUUTT against AI839920	inactive: -0.128
GCAUGCCCGUAAUCAAGUGTT against Racgap1	inactive: 1.06
CGAGUAUGACACCUUCGACTT against Gpr97	inactive: 0.544
CCGGAAAUUUCUGAUGGAGTT against Eif4ebp1	inactive: 0.0692
GCACCUUGUCAACCAUUACTT against Kctd7	inactive: 0.0858
GGACGACGACUUUUUAAAATT against 0710005I19Rik	inactive: 0.273
CGCCAUAGUCAUCUUCUAATT against AI987944	inactive: -0.641
GGAAUGAGGUUUGUAGACUTT against 6330406P08Rik	inactive: 1.71
GGAGUUGGUUUGUAUCAAATT against Fgf15	inactive: -0.233
GCAUGCGCGCUACACUCUATT against Adamts5	active: 0.75
GGCCUUUAACAAGUUUCUATT against Csna	inactive: 1.44
GGAACUCAAAGUCAAGGUUTT against Cryab	inactive: -0.256
CCCAGCACUUUUUCGCUCUTT against Olfr458	inactive: 0.91
CGGGUUCAACUAAAUUCAGTT against Dnajc5	inactive: 0.157
GCCGAUAGCAUAGACAGUGTT against 2310037I24Rik	inactive: -1.24
GCAUGUCGCCUUGAAAUUATT against Cpne4	inactive: -0.538
GCUACAUGUCAAAGAACCATT against 2210023C10Rik	inactive: 0.194
GCCUCCACAGACAAAUACGTT against Ap1gbp1	inactive: 0.145
GGUGUGUUUUUGCUUCUCUTT against 2310004K06Rik	inactive: -0.606
UGACUUGUGAGAUUGAUCGTT against 1810014F10Rik	inactive: 1.23
GGAAGACUACAUAAGAGACTT against Cxcl9	inactive: -0.461
CCCACAAAUUAAAGUCCGCTT against Cldn16	inactive: 0.51
CCAAGACUCUUUAUUCAACTT against Rasip1	inactive: 1.81
GGACGAGAAGAUUGUCUGCTT against Pamci	inactive: -1.01

2 entries picked at random from the list so far:
Sequence	z-score
CCCACAAAUUAAAGUCCGCTT against Cldn16	inactive: 0.51
GGCCUUUAACAAGUUUCUATT against Csna	inactive: 1.44

Taken from above:
z-score with GGACGACGACUUUUUAAAATT against 0710005I19Rik is entered as inactive: 0.273
z-score with GGAACUCAAAGUCAAGGUUTT against Cryab is entered as inactive: -0.256
z-score with GCACCUUGUCAACCAUUACTT against Kctd7 is entered as inactive: 0.0858

Additional results:

Sequence	z-score
GGGCACUGACAAACGUAUUTT against Olfr433	inactive: -0.192
GGUGGAAUUGGAAUCACCUTT against Wrb	inactive: -0.954
GCAGUGUAUAGGUGUACAATT against Krt2-17	inactive: -2.07
GGUUGUAGAUAUUUCAGACTT against Birc4	inactive: 0.695
GGGACAAAAACACAUGUACTT against Kif5c	inactive: -0.451
GGAAAGGACGACAUACAGGTT against C530015C18	inactive: 1.84
CCAUGCAAGAAUUAAAGCCTT against Anxa11	inactive: 0.932
GCUUCCAUAUCUUUCAUAGTT against Olfr987	inactive: -0.923
GGAGUUCAGCAACCUGUUGTT against 1810014L12Rik	inactive: -1.7
GGGAAUUCUUUGUUAAUGATT against Ceacam9	inactive: -0.309
GGUGCUGACAUCCUCUUUUTT against Chd9	inactive: -2.18
GGGCAACUAUAGAAUAGUGTT against Asb2	inactive: -0.597
GCUAGAGACGAGAAGAUGATT against AI604832	inactive: 0.38
GGAGAGCAGAUGUGAUUCUTT against Ftsj2	inactive: -0.33
GCUGACAAAGUGGUUUCUUTT against Olfr733	inactive: -0.21
CCACCAUCAAAUAUAACUATT against 9930021J03Rik	inactive: 0.126
GGAACAUAUUAUCUCGGAGTT against Cit	inactive: 0.248
GGCGCGGCUGAAAUUUGAATT against Casc1	inactive: -0.397
GCGAUCAGCAAGCUAAGCCTT against Mettl2	inactive: 0.265
CCUCUCAUGUGUGCCUAUATT against Pitpnm1	inactive: -0.634
CCAUUUAUUUGGACUUGUATT against Lig4	inactive: -1.06
CCAAGUUUCAGAAGGAUUATT against Niban	inactive: 2.46
GGUCAUCAGAAGAAUCAAGTT against Arr3	inactive: -0.0927
GGUGGUAGAUGCGGAUGUGTT against Kif3b	inactive: 1.05
CCUAAAGGGUUUAUAUGCATT against Slc26a3	inactive: -0.415
GGGCGUGGUCAACUUCAAATT against Man1c1	inactive: -0.476

Sequence	z-score
GGCUUCAUUCGUAGGCCAUTT against Smcr8	inactive: 0.111
GGAGCACAAGAAGGAUAAGTT against Top1	inactive: 0.814
GCCAUGCUAGUCUUAGAAATT against A130081B01	inactive: -1.48
GGCAAAACAUGCUUGGACCTT against 4931408L03Rik	inactive: 1.57
GCUUGGUUGGAUCCUGAUUTT against Polr2g	inactive: -3.12
GCACAUCAACAUUGAUACUTT against Atp11c	inactive: 0.104
GGCAGAUGUAUGAAAUCUUTT against Fancc	inactive: 1.37
CGAAUGAAGCUGACAUUGGTT against Ssx9	inactive: 0.944
GCUUCUGUUAUGAGGCUCATT against Hif1a	inactive: -1.01
GCUCGAACUGUGUUCUAACTT against Polr3b	inactive: 0.387
CCGCUACCAACAGAGCAAATT against Trim9	inactive: 2.09
GGUAGCUUAGAGGACUAACTT against Cidec	inactive: 1.46
GGAAACCUACUGUUGCACUTT against 5430401O09Rik	inactive: -0.0355
GGGAUCAAUUUUGAAGAAUTT against AU020939	inactive: -1.49
GGUGAAAAGCAAUCCUCAGTT against Mpn	inactive: -1.39
CCGGACCUCUGCGCAAUUUTT against Npb	inactive: -1.62
GGCCCAAUGAUUACAACAUTT against V1re7	inactive: 0.0366
GCAGCAACAUUCUUUGGAUTT against Adk	inactive: 1.08
AAUGGCAUAGGUCCUAUUATT against D9Ertd402e	inactive: -0.666
GCCAAAUAUUAUUCCUACATT against Sec63	inactive: -1.36
GAAGUGAAGAAAGUCAUCATT against Olfr1506	inactive: -0.618
GGAGAAUGACUAGGUAAUCTT against A130010J15Rik	inactive: -1.41
GGGCACUUAUGCAAGCAAATT against Pcyt1b	inactive: 0.56
CCAAAUGUAACUGGUGUAATT against 2810003C17Rik	inactive: 0.768
GGGUCAUAAAAGUUGUUCUTT against Mtmr4	inactive: -0.381
GGUCCUCAUCUGGAACCUGTT against Coro2b	inactive: 0.537

Already shown: an excerpt of the list.
Sequence	z-score
GGAAACCUACUGUUGCACUTT against 5430401O09Rik	inactive: -0.0355
GGGAUCAAUUUUGAAGAAUTT against AU020939	inactive: -1.49

The list goes on:

Sequence	z-score
GGCACAAGAGCAAAGGCUUTT against Gmppb	inactive: -2.01
GGACAAGUAUGUCACAGCGTT against Kcnh2	inactive: 0.175
GGAAAAUGAGCUGAGGAAATT against 5430425K04Rik	inactive: 0.212
GGAAUUUCGACCAUCGUCUTT against 1810017F10Rik	inactive: 0.313
GGAUACGAUGUGCUAAGGUTT against Rars	inactive: -2.12
GCAAUUAGGACUUCAAGAGTT against Snx14	inactive: 0.225
GCUAUUGGUGCUUUUAUACTT against Olfr1198	inactive: 0.112
GGAGAGCCCUAUAGAAGUUTT against Zfp639	inactive: 0.946
GGAAAGCAGGACAAAAGGCTT against 2810422O20Rik	inactive: 2.38
CCUGCACAGCAAAUACAGUTT against 2610019I03Rik	inactive: -0.21
GCCGAGUUAAGUUGACUUUTT against Ptpn12	inactive: -0.404
GGAGAUACUGAGUACAUUCTT against Cd38	inactive: 0.709
GGCGUAGUACUUCUAAUACTT against Rab12	inactive: -0.38
GCAGCAUUUAGCUAGACAGTT against Agtr1b	inactive: -0.525
GGACUCUUUUAUGAGUUUGTT against Lims1	inactive: 2.45
GCUAAACCCAAAAACACAATT against Sim2	inactive: 0.765
GCCUUCCAUACUUCACUACTT against Gm605	inactive: 0.415
GGAAAUGUAGUGAAGGGUGTT against Ndfip2	inactive: -0.67
GGGAAGCUAAUAAAAGCACTT against Rgs20	inactive: -0.323
GGAUCUAGAUAAAACUCAATT against Epb4.1l3	inactive: -1.57
GCUAUGUGGGUUGUGCUAUTT against Olfr1361	inactive: -0.987
GGUUCAUAGGCAACUUUCUTT against Olfr1294	inactive: -1.35
GGGCUAUGCAGACCUGUACTT against Cyb561	inactive: 1.54
CCGUAGAAGGGUUCAACACTT against BC026682	inactive: -1.41
GGACCAAAAUCUAGAAUACTT against 9330199A09Rik	inactive: -0.936
GGAUGAAUAUGGUGUUUCUTT against Rnf138	inactive: -1
